One sequence from publication PMC12023856 can be followed below.

For this data set, the system named is LvERF113-GST (Lilium hybrid cultivar 'Viviana'). The data set is described as follows: EMSA. The conditions noted are these: Chemiluminescent EMSA kit (Beyotime); pH and temperature not stated; cold competitor 10x and 50x; recombinant protein; protein details: GST (pGEX-6P); label: biotin.

The exact form of at least one protein or probe is not confirmed. No signal at the amounts used counts as a negative.

On to “CTCTAACCACTAAAAAAACCGGTCAAATG (double strand) [proLvMYB1 GCC-box mutant probe (Mu-P3-Bio)]”, for which the binding result was “no binding”.
